In article PMC10439630:
No constants are given. Whether binding was seen depends on the method and setting. In cells and extracts the contact can be indirect. Some results given as binding are weak or reduced against the parent protein; the word gives no strength.

Protein sequences, listed by entry. Tags and fused reporters are not part of them.
UniProt Q92831: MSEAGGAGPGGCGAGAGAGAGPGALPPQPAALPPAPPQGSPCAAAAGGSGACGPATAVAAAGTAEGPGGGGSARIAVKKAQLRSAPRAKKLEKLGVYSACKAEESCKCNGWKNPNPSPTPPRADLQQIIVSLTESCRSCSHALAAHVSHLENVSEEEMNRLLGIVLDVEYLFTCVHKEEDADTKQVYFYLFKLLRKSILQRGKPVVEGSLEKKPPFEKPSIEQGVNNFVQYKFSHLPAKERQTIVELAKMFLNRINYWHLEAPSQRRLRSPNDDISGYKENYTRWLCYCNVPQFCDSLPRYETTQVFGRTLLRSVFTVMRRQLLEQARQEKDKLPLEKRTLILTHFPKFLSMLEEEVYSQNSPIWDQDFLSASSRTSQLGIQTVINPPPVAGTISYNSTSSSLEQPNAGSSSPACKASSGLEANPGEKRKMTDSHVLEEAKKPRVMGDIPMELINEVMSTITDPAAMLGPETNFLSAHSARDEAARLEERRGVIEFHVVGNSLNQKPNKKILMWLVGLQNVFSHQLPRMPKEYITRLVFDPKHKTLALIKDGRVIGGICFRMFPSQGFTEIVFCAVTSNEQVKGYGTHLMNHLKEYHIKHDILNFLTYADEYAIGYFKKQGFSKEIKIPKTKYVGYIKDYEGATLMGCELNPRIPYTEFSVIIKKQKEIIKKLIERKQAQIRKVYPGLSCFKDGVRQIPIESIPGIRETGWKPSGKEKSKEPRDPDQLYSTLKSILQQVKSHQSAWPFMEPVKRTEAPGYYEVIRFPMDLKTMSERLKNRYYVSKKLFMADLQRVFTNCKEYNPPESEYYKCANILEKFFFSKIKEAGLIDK
UniProt Q04206: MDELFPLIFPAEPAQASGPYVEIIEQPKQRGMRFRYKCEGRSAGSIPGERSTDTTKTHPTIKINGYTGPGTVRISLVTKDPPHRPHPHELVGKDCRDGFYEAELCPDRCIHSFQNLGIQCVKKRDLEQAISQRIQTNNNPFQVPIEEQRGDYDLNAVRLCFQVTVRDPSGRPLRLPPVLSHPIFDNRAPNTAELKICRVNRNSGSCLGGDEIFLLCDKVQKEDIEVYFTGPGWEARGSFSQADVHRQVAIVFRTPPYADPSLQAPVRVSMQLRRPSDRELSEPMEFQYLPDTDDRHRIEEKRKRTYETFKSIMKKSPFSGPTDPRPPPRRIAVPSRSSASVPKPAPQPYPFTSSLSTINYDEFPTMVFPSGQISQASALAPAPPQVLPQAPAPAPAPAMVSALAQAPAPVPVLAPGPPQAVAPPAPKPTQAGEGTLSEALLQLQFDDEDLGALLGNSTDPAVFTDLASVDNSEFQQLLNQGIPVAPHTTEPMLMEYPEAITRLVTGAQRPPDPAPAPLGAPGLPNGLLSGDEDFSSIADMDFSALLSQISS

Biological target: P300/CBP-associated factor (PCAF) (human) (UniProt Q92831)
Test: co-IP; reciprocal co-IP; protein A + G magnetic beads with antibody (PCAF, p65, HA and Flag antibodies listed) or normal IgG added to cell extracts in lysis buffer for Western and IP with PMSF and phosphatase inhibitor; western blot; cells not named

binding: binds
Substance: NF-κB subunit p65 (from UniProt Q04206 1-551)
